Laboratory results taken from US8846868B2, “Anti-AREG/HB-EGF antibodies and treatment” (Fusion Antibodies Limited, priority 2008, dated 2014).
These are yes or no findings as the source states them, for the method shown. A result given as binding can be weak or reduced; the word gives no strength.

B1: 8d7 1f6 2b3 antibody (antibody, V domains shown)
VH: EVQLQQSGAELVRPGALVKLSCKASGFNIKDSYIHWVNQRPEQGLEWIGWIDPENGNTIYDPKFQGKASITADTSSNTAYLQLSSLTSEDTAVYYCVSASYRYGFSYWGQGTLVTVSA
VL: DIVMTQAAPSVPVTPGESVSISCRSNKSLLHTNGNTYLYWFLQRPGQSPQLLIYRMSNLASGVPDRFSGSGSGTAFTLRISRVEAEDVGVYYCMQHLEYPYTFGGGTKLEIKR
B2: 8d7 1f6 2f7 antibody (antibody, V domains shown)
VH: EVQLQQSGAELVRPGALVKLSCKASGFNIKDSYIHWVNQRPEQGLEWIGWIDPENGNTIYDPKFQGKASITADTSSNTAYLQLSSLTSEDTAVYYCVSASYRYGFSYWGQGTLVTVSA
VL: DIVMTQAAPSVPVTPGESVSISCRSNKSLLHTNGNTYLYWFLQRPGQSPQLLIYRMSNLASGVPDRFSGSGSGTAFTLRISRVEAEDVGVYYCMQHLEYPYTFGGGTKLEIKR

Target: recombinant HBEGF (human)
Experiment: ELISA, antibody on coated recombinant protein (HBEGF, AREGfg5, rAREG), FIG. 10

Row | Binder | binding
1 | B1 | binds
2 | B2 | binds
